# According to PubChem BioAssay AID256 (DTP/NCI, 2004):
# The list does not hold the whole screen: it gathers tests that were run many times, whatever their T/C, doses with no T/C, and many T/C values between a quarter and a half above the control. Further doses and runs are listed elsewhere. T/C gives the treated animals as a percentage of the vehicle group. Some doses have a count of surviving animals in place of a T/C: the source holds a T/C of zero for them, seemingly a mark for toxic or unscored doses. Some survivor counts are full or nearly so, which does not show that the dose was tolerated: survival well below the control is almost never listed, so the zero probably covers shortened survival too. Counts of survivors are from the toxicity check (mostly the fifth day) where no day follows; animals may have died later. Schedules are NCI's codes, taken here to give the interval after Q, in days (D) or hours (H), and the number of doses after X. Some entries were tested several times; the values are given in rising order. Where survival is the endpoint, this PubChem deposit counts one and a half times the control or more as active, and values a quarter to a half above the control carry no call in these data; other NCI protocols may use other cut-offs. Some T/C values carry the count of animals alive at the toxicity check (mostly the fifth day); without a count, all were alive then. Brackets with × stand for listed records that agree.
# Test system: CD2F1 mice, L1210 leukemia ip, survival T/C
# Test: NCI In Vivo Anticancer Drug Screen. Data for tumor model L1210 Leukemia (intraperitoneal) in CD2F1 (CDF1) mice
# Conditions: higher T/C = longer survival
# In short: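 Transplantable tumor in mice; compound-treated vs vehicle-treated groups. Read-out = treated/control ratio of the measured endpoint.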
smiles,measurement,setting,value
CN(C)/N=N/c1nc[nH]c1C(N)=O,T/C,"T/C endpoint: mean survival time, dose: 25.0 mg/kg/injection, schedule: Q01DX009 (ip), vehicle: other, evaluated on day 30","102, 108, 112, 118, 120 [5 of 6 alive], 121, 122, 124, 125, 128, 129, 131, 134, 142 % of control"
same,T/C,"T/C endpoint: mean survival time, dose: 25.0 mg/kg/injection, schedule: Q01DX009 (ip), vehicle: other, evaluated on day 45",133 % of control
same,T/C,"T/C endpoint: mean survival time, dose: 37.5 mg/kg/injection, schedule: Q01DX009 (ip), vehicle: Klucel (hydroxypropylcellulose) (HPC)",143 % of control
same,T/C,"T/C endpoint: mean survival time, dose: 50.0 mg/kg/injection, schedule: Q01DX005 (ip), vehicle: saline, evaluated on day 5",113 and 125 % of control
same,T/C,"T/C endpoint: mean survival time, dose: 50.0 mg/kg/injection, schedule: Q01DX005 (ip), vehicle: saline, evaluated on day 30",113 and 125 % of control
same,T/C,"T/C endpoint: mean survival time, dose: 50.0 mg/kg/injection, schedule: Q01DX007 (ip), vehicle: saline",139 % of control
same,T/C,"T/C endpoint: mean survival time, dose: 50.0 mg/kg/injection, schedule: Q01DX009 (ip), vehicle: DMSO",129 % of control
same,T/C,"T/C endpoint: mean survival time, dose: 50.0 mg/kg/injection, schedule: Q01DX009 (ip), vehicle: Klucel (hydroxypropylcellulose) (HPC)","112, 117 (2×), 121, 122, 124, 125 (2×), 136, 137 (2×), 140, 144, 162 % of control [5 of 6 alive]"
same,T/C,"T/C endpoint: mean survival time, dose: 50.0 mg/kg/injection, schedule: Q01DX009 (ip), vehicle: other, evaluated on day 30","118, 128, 130, 133, 133 [5 of 6 alive], 134, 138, 141, 142, 143, 146, 147 (2×), 150, 164 % of control"
same,T/C,"T/C endpoint: mean survival time, dose: 50.0 mg/kg/injection, schedule: Q01DX009 (ip), vehicle: other, evaluated on day 45",150 % of control
same,T/C,"T/C endpoint: mean survival time, dose: 50.0 mg/kg/injection, schedule: Q01DX009 (ip), vehicle: saline",131 % of control
same,T/C,"T/C endpoint: mean survival time, dose: 50.0 mg/kg/injection, schedule: Q01DX009 (ip), vehicle: water",127 % of control
same,T/C,"T/C endpoint: mean survival time, dose: 50.0 mg/kg/injection, schedule: Q01DX009 (oral), vehicle: steroid suspending solution",127 % of control
same,T/C,"T/C endpoint: mean survival time, dose: 50.0 mg/kg/injection, schedule: Q03HX024 (ip), vehicle: steroid suspending solution",128 % of control
same,T/C,"T/C endpoint: mean survival time, dose: 50.0 mg/kg/injection, schedule: Q03HX024 (oral), vehicle: steroid suspending solution",134 % of control
same,T/C,"T/C endpoint: mean survival time, dose: 65.0 mg/kg/injection, schedule: Q01DX009 (ip), vehicle: carboxymethylcellulose (CMC)",145 % of control
same,T/C,"T/C endpoint: mean survival time, dose: 75.0 mg/kg/injection, schedule: Q01DX009 (ip), vehicle: Klucel (hydroxypropylcellulose) (HPC)",137 % of control
same,T/C,"T/C endpoint: mean survival time, dose: 91.0 mg/kg/injection, schedule: Q01DX009 (ip), vehicle: Klucel (hydroxypropylcellulose) (HPC)",143 % of control
same,T/C,"T/C endpoint: mean survival time, dose: 100.0 mg/kg/injection, schedule: Q01DX005 (ip), vehicle: other",130 % of control
same,T/C,"T/C endpoint: mean survival time, dose: 100.0 mg/kg/injection, schedule: Q01DX005 (ip), vehicle: saline, evaluated on day 5",139 and 147 % of control
same,T/C,"T/C endpoint: mean survival time, dose: 100.0 mg/kg/injection, schedule: Q01DX005 (ip), vehicle: saline, evaluated on day 30",140 and 147 % of control
same,T/C,"T/C endpoint: mean survival time, dose: 100.0 mg/kg/injection, schedule: Q01DX007 (ip), vehicle: saline",139 % of control
same,T/C,"T/C endpoint: mean survival time, dose: 100.0 mg/kg/injection, schedule: Q01DX009 (ip), vehicle: DMSO",129 and 141 % of control
same,T/C,"T/C endpoint: mean survival time, dose: 100.0 mg/kg/injection, schedule: Q01DX009 (ip), vehicle: Klucel (hydroxypropylcellulose) (HPC)","122, 123, 126, 133, 137 (2×), 140, 145, 146, 148, 153, 154, 166, 210 % of control"
same,T/C,"T/C endpoint: mean survival time, dose: 100.0 mg/kg/injection, schedule: Q01DX009 (ip), vehicle: other, evaluated on day 30","111, 138, 141, 142, 143, 145, 149, 150 (2×), 155, 158, 161, 168, 170 % of control (2×)"
same,T/C,"T/C endpoint: mean survival time, dose: 100.0 mg/kg/injection, schedule: Q01DX009 (ip), vehicle: other, evaluated on day 45",150 % of control
same,T/C,"T/C endpoint: mean survival time, dose: 100.0 mg/kg/injection, schedule: Q01DX009 (ip), vehicle: saline",125 and 147 % of control
same,T/C,"T/C endpoint: mean survival time, dose: 100.0 mg/kg/injection, schedule: Q01DX009 (ip), vehicle: steroid suspending solution",140 % of control
same,T/C,"T/C endpoint: mean survival time, dose: 100.0 mg/kg/injection, schedule: Q01DX009 (ip), vehicle: water",137 % of control
same,T/C,"T/C endpoint: mean survival time, dose: 100.0 mg/kg/injection, schedule: Q01DX009 (oral), vehicle: steroid suspending solution",148 % of control
same,T/C,"T/C endpoint: mean survival time, dose: 100.0 mg/kg/injection, schedule: Q04DX003 (ip), vehicle: water",125 % of control
same,T/C,"T/C endpoint: mean survival time, dose: 182.0 mg/kg/injection, schedule: Q01DX009 (ip), vehicle: Klucel (hydroxypropylcellulose) (HPC)",127 % of control
same,T/C,"T/C endpoint: mean survival time, dose: 200.0 mg/kg/injection, schedule: Q01DX001 (ip), vehicle: distilled water + Tween-80",127 % of control
same,T/C,"T/C endpoint: mean survival time, dose: 200.0 mg/kg/injection, schedule: Q01DX005 (ip), vehicle: other",138 % of control
same,T/C,"T/C endpoint: mean survival time, dose: 200.0 mg/kg/injection, schedule: Q01DX005 (ip), vehicle: saline, evaluated on day 5",155 and 162 % of control
same,T/C,"T/C endpoint: mean survival time, dose: 200.0 mg/kg/injection, schedule: Q01DX005 (ip), vehicle: saline, evaluated on day 30",155 and 162 % of control
same,T/C,"T/C endpoint: mean survival time, dose: 200.0 mg/kg/injection, schedule: Q01DX009 (ip), vehicle: DMSO",137 % of control
same,T/C,"T/C endpoint: mean survival time, dose: 200.0 mg/kg/injection, schedule: Q01DX009 (ip), vehicle: Klucel (hydroxypropylcellulose) (HPC)","109, 121, 125, 127, 134, 137, 138, 140, 150 (2×), 154, 164, 176, 213 % of control"
same,T/C,"T/C endpoint: mean survival time, dose: 200.0 mg/kg/injection, schedule: Q01DX009 (ip), vehicle: other, evaluated on day 30","98, 119, 131, 134, 139, 140, 157, 161 (2×), 164, 165, 166, 168, 172, 183 % of control"
same,T/C,"T/C endpoint: mean survival time, dose: 200.0 mg/kg/injection, schedule: Q01DX009 (ip), vehicle: other, evaluated on day 45",165 % of control
same,T/C,"T/C endpoint: mean survival time, dose: 200.0 mg/kg/injection, schedule: Q01DX009 (ip), vehicle: saline",133 % of control
same,T/C,"T/C endpoint: mean survival time, dose: 200.0 mg/kg/injection, schedule: Q03DX003 (ip), vehicle: saline",136 % of control
same,T/C,"T/C endpoint: mean survival time, dose: 200.0 mg/kg/injection, schedule: Q04DX003 (ip), vehicle: other",125 and 132 % of control
same,T/C,"T/C endpoint: mean survival time, dose: 200.0 mg/kg/injection, schedule: Q04DX003 (ip), vehicle: saline",127 % of control
same,T/C,"T/C endpoint: mean survival time, dose: 200.0 mg/kg/injection, schedule: Q04DX003 (ip), vehicle: water",138 % of control
same,T/C,"T/C endpoint: mean survival time, dose: 300.0 mg/kg/injection, schedule: Q01DX009 (ip), vehicle: Klucel (hydroxypropylcellulose) (HPC)",129 % of control
same,T/C,"T/C endpoint: mean survival time, dose: 400.0 mg/kg/injection, schedule: Q01DX005 (ip), vehicle: saline, evaluated on day 5",129 and 135 % of control
same,T/C,"T/C endpoint: mean survival time, dose: 400.0 mg/kg/injection, schedule: Q01DX005 (ip), vehicle: saline, evaluated on day 30",128 and 130 % of control
same,T/C,"T/C endpoint: mean survival time, dose: 400.0 mg/kg/injection, schedule: Q01DX009 (ip), vehicle: DMSO",134 % of control
same,T/C,"T/C endpoint: mean survival time, dose: 400.0 mg/kg/injection, schedule: Q01DX009 (ip), vehicle: Klucel (hydroxypropylcellulose) (HPC)","94 [4 of 6 alive], 109, 113, 114 [5 of 6 alive], 120, 121, 122, 123, 125, 127, 133, 134, 140 % of control (2×)"
same,T/C,"T/C endpoint: mean survival time, dose: 400.0 mg/kg/injection, schedule: Q01DX009 (ip), vehicle: other, evaluated on day 30","98, 104 [5 of 6 alive], 105 [5 of 6 alive], 106, 118, 120 [5 of 6 alive], 122 [5 of 6 alive] (2×), 140 [4 of 6 alive], 140 % of control [5 of 6 alive]"
same,T/C,"T/C endpoint: mean survival time, dose: 400.0 mg/kg/injection, schedule: Q01DX009 (ip), vehicle: other, evaluated on day 45",103 % of control [4 of 6 alive]
same,survivor count,"T/C endpoint: mean survival time, dose: 400.0 mg/kg/injection, schedule: Q01DX009 (ip), vehicle: other","1 of 6, 5 of 6, 3 of 3, 6 of 6"
same,T/C,"T/C endpoint: mean survival time, dose: 400.0 mg/kg/injection, schedule: Q01DX009 (ip), vehicle: steroid suspending solution",144 % of control [7 of 8 alive]
same,T/C,"T/C endpoint: mean survival time, dose: 400.0 mg/kg/injection, schedule: Q04DX003 (ip), vehicle: Klucel (hydroxypropylcellulose) (HPC)",135 % of control
same,T/C,"T/C endpoint: mean survival time, dose: 400.0 mg/kg/injection, schedule: Q04DX003 (ip), vehicle: other",125 and 143 % of control
same,T/C,"T/C endpoint: mean survival time, dose: 400.0 mg/kg/injection, schedule: Q04DX003 (ip), vehicle: steroid suspending solution",135 % of control
same,T/C,"T/C endpoint: mean survival time, dose: 400.0 mg/kg/injection, schedule: Q04DX003 (ip), vehicle: water",132 % of control
same,T/C,"T/C endpoint: mean survival time, dose: 400.0 mg/kg/injection, schedule: Q04DX003 (oral), vehicle: steroid suspending solution",134 % of control
same,T/C,"T/C endpoint: mean survival time, dose: 400.0 mg/kg/injection, schedule: Q08DX002 (oral), vehicle: steroid suspending solution",129 % of control
same,survivor count,"T/C endpoint: mean survival time, dose: 546.0 mg/kg/injection, schedule: Q01DX009 (ip), vehicle: Klucel (hydroxypropylcellulose) (HPC)",10 of 10
same,T/C,"T/C endpoint: mean survival time, dose: 800.0 mg/kg/injection, schedule: Q04DX003 (ip), vehicle: steroid suspending solution",149 % of control [7 of 8 alive]
same,T/C,"T/C endpoint: mean survival time, dose: 800.0 mg/kg/injection, schedule: Q04DX003 (oral), vehicle: steroid suspending solution",135 % of control
same,T/C,"T/C endpoint: mean survival time, dose: 1200.0 mg/kg/injection, schedule: Q01DX001 (oral), vehicle: saline",133 % of control
same,T/C,"T/C endpoint: median survival time, dose: 50.0 mg/kg/injection, schedule: Q03HX008 (ip), vehicle: Klucel (hydroxypropylcellulose) (HPC)",127 % of control
same,T/C,"T/C endpoint: median survival time, dose: 75.0 mg/kg/injection, schedule: Q03HX008 (ip), vehicle: Klucel (hydroxypropylcellulose) (HPC)",131 % of control [8 of 9 alive]
same,T/C,"T/C endpoint: median survival time, dose: 160.0 mg/kg/injection, schedule: Q01DX005 (ip), vehicle: Klucel (hydroxypropylcellulose) (HPC)",135 % of control
same,T/C,"T/C endpoint: median survival time, dose: 200.0 mg/kg/injection, schedule: Q02DX005 (ip), vehicle: Klucel (hydroxypropylcellulose) (HPC)",144 % of control
same,T/C,"T/C endpoint: median survival time, dose: 240.0 mg/kg/injection, schedule: Q01DX005 (ip), vehicle: Klucel (hydroxypropylcellulose) (HPC)",129 % of control
same,T/C,"T/C endpoint: median survival time, dose: 400.0 mg/kg/injection, schedule: Q02DX005 (ip), vehicle: Klucel (hydroxypropylcellulose) (HPC)",127 % of control
